Experimental data from article PMC13215057.
These are yes or no findings as the source states them, for the method shown. Binding seen in cells or lysates may run through a third protein. These calls come from enrichment with a bait or labelling near it, and not all partners need be listed.

Amino acid sequences for entries named in this document (tags omitted). A change or cut given only in a name is not applied to a line headed by its entry.
UniProt Q9Z1Y3: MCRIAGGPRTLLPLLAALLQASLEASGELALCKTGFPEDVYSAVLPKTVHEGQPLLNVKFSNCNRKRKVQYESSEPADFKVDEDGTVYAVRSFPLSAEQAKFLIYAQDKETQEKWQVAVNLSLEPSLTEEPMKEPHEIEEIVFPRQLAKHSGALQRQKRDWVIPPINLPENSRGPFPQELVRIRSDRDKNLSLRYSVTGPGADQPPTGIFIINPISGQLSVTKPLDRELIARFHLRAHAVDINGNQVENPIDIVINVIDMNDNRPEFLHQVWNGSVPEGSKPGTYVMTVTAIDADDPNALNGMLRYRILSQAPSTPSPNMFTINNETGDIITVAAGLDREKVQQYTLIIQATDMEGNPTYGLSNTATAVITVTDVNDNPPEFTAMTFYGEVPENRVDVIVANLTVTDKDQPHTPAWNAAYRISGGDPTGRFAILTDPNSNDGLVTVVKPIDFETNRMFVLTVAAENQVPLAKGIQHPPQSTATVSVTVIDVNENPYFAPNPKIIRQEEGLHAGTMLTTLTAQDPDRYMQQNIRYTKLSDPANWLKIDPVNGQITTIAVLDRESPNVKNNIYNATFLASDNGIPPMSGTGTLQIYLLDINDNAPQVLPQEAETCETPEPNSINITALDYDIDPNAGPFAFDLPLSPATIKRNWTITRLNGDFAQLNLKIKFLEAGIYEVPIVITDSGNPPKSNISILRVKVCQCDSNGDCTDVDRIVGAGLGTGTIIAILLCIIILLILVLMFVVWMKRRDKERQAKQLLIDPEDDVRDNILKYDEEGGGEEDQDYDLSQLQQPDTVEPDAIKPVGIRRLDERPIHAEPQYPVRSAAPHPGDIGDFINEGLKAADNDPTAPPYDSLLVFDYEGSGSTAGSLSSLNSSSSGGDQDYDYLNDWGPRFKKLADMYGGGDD
UniProt Q9WU82: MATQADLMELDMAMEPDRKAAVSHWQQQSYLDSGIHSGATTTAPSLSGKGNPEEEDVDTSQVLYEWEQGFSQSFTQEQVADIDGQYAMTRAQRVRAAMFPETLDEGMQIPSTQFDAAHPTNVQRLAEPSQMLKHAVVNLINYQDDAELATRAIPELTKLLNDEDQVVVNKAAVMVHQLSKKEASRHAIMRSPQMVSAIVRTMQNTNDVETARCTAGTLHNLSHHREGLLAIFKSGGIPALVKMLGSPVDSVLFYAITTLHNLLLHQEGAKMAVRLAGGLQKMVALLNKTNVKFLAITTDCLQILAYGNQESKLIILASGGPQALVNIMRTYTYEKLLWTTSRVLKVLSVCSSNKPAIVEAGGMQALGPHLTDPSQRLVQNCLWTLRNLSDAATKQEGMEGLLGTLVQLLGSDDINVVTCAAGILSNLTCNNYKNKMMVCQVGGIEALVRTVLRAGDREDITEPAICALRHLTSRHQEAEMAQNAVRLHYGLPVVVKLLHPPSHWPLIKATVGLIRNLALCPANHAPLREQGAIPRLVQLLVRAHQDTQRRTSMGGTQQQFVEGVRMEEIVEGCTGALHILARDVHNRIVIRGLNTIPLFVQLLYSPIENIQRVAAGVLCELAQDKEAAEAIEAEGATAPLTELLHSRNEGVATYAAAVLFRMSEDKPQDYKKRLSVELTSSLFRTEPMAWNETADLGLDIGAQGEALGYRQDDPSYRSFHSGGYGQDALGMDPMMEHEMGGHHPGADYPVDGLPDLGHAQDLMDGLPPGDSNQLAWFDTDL
UniProt Q9R0T4: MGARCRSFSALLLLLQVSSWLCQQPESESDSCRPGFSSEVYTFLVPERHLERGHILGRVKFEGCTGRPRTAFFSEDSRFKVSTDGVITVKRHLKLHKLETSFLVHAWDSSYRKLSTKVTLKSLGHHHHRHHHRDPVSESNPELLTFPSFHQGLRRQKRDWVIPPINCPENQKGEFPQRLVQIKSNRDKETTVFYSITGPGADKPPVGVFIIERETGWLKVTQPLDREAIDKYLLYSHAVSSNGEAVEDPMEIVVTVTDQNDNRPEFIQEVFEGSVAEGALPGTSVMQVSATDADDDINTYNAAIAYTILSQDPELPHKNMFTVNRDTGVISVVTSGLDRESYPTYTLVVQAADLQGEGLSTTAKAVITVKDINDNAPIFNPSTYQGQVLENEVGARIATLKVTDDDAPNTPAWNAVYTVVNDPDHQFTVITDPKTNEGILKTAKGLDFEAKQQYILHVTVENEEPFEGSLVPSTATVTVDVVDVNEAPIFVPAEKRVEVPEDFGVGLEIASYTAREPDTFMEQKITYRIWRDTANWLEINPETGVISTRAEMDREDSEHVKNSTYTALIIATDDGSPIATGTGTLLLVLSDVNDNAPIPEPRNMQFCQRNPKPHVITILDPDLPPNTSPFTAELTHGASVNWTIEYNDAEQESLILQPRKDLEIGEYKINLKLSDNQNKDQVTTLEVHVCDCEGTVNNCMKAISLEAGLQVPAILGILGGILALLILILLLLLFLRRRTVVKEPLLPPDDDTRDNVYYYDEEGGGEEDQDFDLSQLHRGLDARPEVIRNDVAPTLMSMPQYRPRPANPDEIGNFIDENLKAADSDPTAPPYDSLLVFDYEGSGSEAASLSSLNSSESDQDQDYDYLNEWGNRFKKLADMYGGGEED
UniProt A0A0G2JXT9: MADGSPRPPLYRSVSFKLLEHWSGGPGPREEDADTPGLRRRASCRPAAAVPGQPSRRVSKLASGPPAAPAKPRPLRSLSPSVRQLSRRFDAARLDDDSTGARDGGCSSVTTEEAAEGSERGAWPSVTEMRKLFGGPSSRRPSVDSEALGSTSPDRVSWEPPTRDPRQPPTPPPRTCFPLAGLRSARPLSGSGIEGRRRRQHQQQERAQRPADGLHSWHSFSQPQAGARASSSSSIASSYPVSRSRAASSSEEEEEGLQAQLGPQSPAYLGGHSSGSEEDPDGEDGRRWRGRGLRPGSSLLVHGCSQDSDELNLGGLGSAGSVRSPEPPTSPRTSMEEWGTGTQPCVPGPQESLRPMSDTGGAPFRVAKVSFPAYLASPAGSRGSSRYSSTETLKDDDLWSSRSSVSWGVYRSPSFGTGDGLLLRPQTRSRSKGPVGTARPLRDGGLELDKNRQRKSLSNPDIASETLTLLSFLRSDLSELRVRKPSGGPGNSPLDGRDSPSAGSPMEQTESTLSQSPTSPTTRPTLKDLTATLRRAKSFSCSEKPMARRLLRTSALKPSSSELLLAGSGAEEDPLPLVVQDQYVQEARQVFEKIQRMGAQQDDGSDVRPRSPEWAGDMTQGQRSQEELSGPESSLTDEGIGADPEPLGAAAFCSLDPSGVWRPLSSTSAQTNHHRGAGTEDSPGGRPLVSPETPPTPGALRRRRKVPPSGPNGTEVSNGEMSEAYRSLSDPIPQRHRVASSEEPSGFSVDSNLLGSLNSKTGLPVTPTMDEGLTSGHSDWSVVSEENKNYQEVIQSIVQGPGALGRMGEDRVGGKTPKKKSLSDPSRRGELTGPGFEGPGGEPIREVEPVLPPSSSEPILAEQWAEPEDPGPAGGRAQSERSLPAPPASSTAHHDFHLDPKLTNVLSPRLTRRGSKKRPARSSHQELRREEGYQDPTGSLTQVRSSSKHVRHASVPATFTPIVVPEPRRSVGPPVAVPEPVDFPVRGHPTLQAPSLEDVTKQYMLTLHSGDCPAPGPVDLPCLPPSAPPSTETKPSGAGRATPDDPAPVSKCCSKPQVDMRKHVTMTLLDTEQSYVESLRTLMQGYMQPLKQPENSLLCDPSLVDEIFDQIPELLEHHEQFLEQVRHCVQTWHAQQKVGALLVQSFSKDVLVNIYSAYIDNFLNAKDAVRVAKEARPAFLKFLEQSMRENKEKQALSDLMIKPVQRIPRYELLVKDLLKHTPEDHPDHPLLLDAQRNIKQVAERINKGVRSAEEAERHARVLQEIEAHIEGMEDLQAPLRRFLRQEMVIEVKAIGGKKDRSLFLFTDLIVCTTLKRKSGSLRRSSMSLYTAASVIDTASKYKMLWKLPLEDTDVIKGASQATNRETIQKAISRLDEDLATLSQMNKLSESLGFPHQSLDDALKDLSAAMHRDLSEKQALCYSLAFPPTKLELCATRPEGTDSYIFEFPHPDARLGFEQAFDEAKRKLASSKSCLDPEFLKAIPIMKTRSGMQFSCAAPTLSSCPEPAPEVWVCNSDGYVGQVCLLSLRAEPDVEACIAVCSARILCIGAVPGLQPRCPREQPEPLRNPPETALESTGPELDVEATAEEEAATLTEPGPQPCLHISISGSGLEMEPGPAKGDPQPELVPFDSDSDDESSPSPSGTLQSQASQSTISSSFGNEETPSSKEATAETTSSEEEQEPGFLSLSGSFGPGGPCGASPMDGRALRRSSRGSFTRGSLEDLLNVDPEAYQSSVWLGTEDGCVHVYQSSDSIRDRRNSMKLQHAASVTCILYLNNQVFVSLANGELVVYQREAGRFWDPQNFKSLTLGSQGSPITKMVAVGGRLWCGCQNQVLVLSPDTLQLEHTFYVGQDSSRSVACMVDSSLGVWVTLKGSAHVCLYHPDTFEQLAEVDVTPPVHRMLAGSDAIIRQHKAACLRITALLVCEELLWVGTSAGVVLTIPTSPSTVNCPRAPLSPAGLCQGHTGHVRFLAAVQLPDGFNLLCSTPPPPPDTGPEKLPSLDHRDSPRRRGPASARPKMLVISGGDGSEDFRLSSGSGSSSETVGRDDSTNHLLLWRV
UniProt Q62868: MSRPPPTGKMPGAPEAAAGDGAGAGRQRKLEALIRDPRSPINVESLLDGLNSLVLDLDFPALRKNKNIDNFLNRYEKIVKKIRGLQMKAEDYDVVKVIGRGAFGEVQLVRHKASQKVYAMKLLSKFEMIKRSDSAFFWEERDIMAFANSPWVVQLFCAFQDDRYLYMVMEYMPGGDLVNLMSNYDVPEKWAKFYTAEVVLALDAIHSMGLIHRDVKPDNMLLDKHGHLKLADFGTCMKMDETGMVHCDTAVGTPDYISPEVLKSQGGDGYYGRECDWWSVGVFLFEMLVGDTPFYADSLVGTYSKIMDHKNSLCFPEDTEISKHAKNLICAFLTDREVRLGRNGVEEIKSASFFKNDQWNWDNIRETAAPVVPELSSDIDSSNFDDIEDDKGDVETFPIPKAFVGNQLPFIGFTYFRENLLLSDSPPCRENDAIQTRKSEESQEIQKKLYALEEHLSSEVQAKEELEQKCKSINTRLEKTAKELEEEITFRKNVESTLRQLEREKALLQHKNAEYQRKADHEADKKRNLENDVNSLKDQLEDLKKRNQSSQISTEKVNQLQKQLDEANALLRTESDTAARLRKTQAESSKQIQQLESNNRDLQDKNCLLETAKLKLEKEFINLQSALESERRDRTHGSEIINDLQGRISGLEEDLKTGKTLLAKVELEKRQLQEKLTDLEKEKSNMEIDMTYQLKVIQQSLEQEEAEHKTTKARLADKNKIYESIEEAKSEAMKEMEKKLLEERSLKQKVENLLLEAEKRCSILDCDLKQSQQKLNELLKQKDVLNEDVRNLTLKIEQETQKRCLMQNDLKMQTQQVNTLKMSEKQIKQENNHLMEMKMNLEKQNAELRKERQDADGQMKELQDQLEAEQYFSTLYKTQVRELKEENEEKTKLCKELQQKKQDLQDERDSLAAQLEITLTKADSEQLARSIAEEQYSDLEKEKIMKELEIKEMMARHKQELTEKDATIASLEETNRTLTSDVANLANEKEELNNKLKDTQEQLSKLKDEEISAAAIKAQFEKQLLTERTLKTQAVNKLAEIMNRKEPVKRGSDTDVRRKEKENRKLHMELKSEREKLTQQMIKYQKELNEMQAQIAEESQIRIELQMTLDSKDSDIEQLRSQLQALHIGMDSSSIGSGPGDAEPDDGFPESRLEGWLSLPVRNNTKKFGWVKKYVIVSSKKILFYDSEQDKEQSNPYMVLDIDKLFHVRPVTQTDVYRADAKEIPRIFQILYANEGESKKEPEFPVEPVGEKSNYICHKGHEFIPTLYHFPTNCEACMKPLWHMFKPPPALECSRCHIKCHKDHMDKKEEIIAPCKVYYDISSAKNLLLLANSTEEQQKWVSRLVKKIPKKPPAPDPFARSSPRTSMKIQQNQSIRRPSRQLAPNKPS

B1: lipoma preferred partner (endogenous, Can 10 cells) (protein, UniProt Q5XI07 1-632)
chain: MSHPSWLPPRSTGEPLGHVPARMETTHSFGTPSISVSTQQPPKKFAPVVAPKPKYNPYKQPGGEGDFLPPPPPPLEDPGTIPSGSGHFPPPPPLDEGAFIVQRGNPGGKTLEERRSSLDAEIDSLTSILADLECSSPYKPRAPPGSSSSIASPPVSTPVTGHKRMVIPQQPPLTATKKSATKPQAIPIPVTPIGTLKPQPQPVPASYSTASTSSRPAFNVQVKSAQPSTHYMTGSSSGQMYGPGSRSYNTQQVPLSAQCPPPTTCAGTDYAYIPPSGQQAESGFGYTSNQGRYFEPFFAACPSYGGRNEADPAYGQQVQPNTWKREPGYAAPGAGNQNQPGMYSVSGPKKTYITDPVSAPCAPPVQPKERLVKNQKVLQNVVDDRVHGLRKSGFPAPMGPPSVPPSFRPEDELEHLTKKMLYDMENPPADDYFGRCARCGENVVGEGTGCTAMDQVFHVDCFTCMVCDIKLRGQPFYAVEKKAYCEPCYINTLEQCSVCSKPIMERILRATGKAYHPHCFTCVMCHRSLDGIPFTVDACGLIHCIEDFHKKFAPRCSVCKEPIMPAPGQEETVRIVALDRDFHVHCYRCEDCGGLLSEGDNQGCYPLDGHILCKSCNSARIRVLTAKASTDL
B2: p190A/ARHGAP35 (endogenous, Can 10 cells) (protein, UniProt P81128 1-1499)
chain: MMMARKQDVRIPTYNISVVGLSGTEKEKGQCGIGKSCLCNRFVRPSADEFHLDHTSVLSTSDFGGRVVNNDHFLYWGEVSRSLEDCVECKMHIVEQTEFIDDQTFQPHRSTALQPYIKRAAATKLASAEKLMYFCTDQLGLEQDFEQKQMPDGKLLVDGFLLGIDVSRGMNRNFDDQLKFVSNLYNQLAKTKKPIVIVLTKCDEGVERYIRDAHTFALSKKNLQVVETSARSNVNVDLAFSTLVQLIDKSRGKTKIIPYFEALKQQSQQIATAKDKYEWLVSRIVKSHNENWLSVSRKMQASPEYQDYVYLEGTQKAKKLFLQHIHRLKHEHIERRRKLYLAALPLAFEALIPNLDEVDHLSCIKAKKLLETKPEFLKWFVVLEETPWDETSHIDNMENERIPFDLMDTVPAEQLYETHLEKLRNERKRAEMRRAFKENLETSPFITPGKPWEEARSFIMNEDFYQWLEESVYMDIYGKHQKQIIDRAKEEFQELLLEYSELFYELELDAKPSKEKMGVIQDVLGEEQRFKALQKLQAERDALILKHIHFVYHPTKETCPSCPACVDAKIEHLISSRFIRPSDRNQKNSLSDPNIDRINLVILGKDGLARELANEIRALCTNDDKYVIDGKMYELSLRPIEGNVRLPVNSFQTPTFQPHGCLCLYNSKESLSYVVESIEKSRESTLGRRDNHLVHLPLTLILVNKRGDTSGETLHSLIQQGQQIASKLQCVFLDPASAGIGYGRNINEKQISQVLKGLLDSKRNLNLVSSTASIKDLADVDLRIVMCLMCGDPFSADDILSPVLQSQTCKSSHCGSSNSVLLELPIGVHKKRIELSVLSYHSSFSIRKSRLVHGYIVFYSAKRKASLAMLRAFLCEVQDIIPIQLVALTDGAIDVLDNDLSREQLTEGEEIAQEIDGRFTSIPCSQPQHKLELFHPFFKDVVEKKNIIEATHMYDNVAEACSTTEEVFNSPRAGSPLCNSNLQDSEEDVEPPSYHLFREDATLPSLSKDHSKFSMELEGNDGLSFIMSNFESKLNNKVPPPVKPKPPVHFEITKDLSYLDQGHREGQRKSMSSSPWMPQDGFDPSDYAEPMDAVVKPRNEEENIYSVPHDSTQGKIITIRNINKAQSNGSGNGSDSEMDTSSLERGRKVSAVSKPVLYRTRCTRLGRFASYRTSFSVGSDDELGPIRKKEEDQASQGYKGDNAVIPYETDEDPRRRNILRSLRRNTKKPKPKPRPSITKATWESNYFGVPLTTVVTPEKPIPIFIERCIEYIEATGLSTEGIYRVSGNKSEMESLQRQFDQDHNLDLAEKDFTVNTVAGAMKSFFSELPDPLVPYSMQIDLVEAHKINDREQKLHALKEVLKKFPKENHEVFKYVISHLNRVSHNNKVNLMTSENLSICFWPTLMRPDFSSMDALTATRSYQTIIELFIQQCPFFFYNRPISEPPGAAPGSPSAMAPTVPFLTSTPATSQPSPPQSPPPTPQSPMQPLLSSQLQAEHTL

molecular target: TurboID-tagged N-cadherin (rat) (UniProt Q9Z1Y3); experiment: proximity labelling; BioID: Can 10 cells expressing TurboID-tagged E- or N-cadherin, 50 µM biotin 16 h at 37°C, RIPA lysate, streptavidin magnetic beads, LC-MS/MS; controls biotin(−) and untransfected cells

Q: For “β-catenin (endogenous, Can 10 cells) (from UniProt Q9WU82 1-781)”, which binding is on record?
A: Its binding is “binds”.

Q: How did the binding turn out when B1 was run?
A: The binding was “binds”.

Q: For B2, which binding is on record?
A: The binding was “binds”.

molecular target: TurboID-tagged E-cadherin (rat) (UniProt Q9R0T4); experiment: as above

Q: With “ARHGEF17 (endogenous, Can 10 cells) (from UniProt A0A0G2JXT9)” as the molecule, how does the binding read?
A: The binding was “binds”.

Q: Which binding does the source give for “ROCK2 (endogenous, Can 10 cells) (from UniProt Q62868 1-1388) (enzyme)” here?
A: The binding was “binds”.

Q: For B1, which binding is on record?
A: The binding was “binds”.
